Measurements as given in publication PMC3338416, “A Chemocentric Approach to the Identification of Cancer Targets” (PLoS ONE, 2012).

Tested on: HCT116 cells
Assay: High-throughput resazurin (Alamar blue) cytotoxicity / antiproliferative assay on tumor HCT116 cells
Assay type: cell-based, human
Protocol: A colon adenocarcinoma (HCT116) and normal human lung fibroblast (MRC-5) cell lines were purchased from the American Type Culture Collection (ATCC, Manassas, VA). HCT116 cells were maintained in McCoy's 5a Modified Medium supplemented with 10% FBS, 100 units/ml penicillin, and 100 µg/ml streptomycin at 37°C in a humidified 5% CO2 incubator. Subculturing was done using 1∶5 ratio twice a week. MRC-5 cells were maintained in DMEM supplemented with 10% FBS, 100 units/ml penicillin, and 100 µg/ml streptomycin at 37°C in a humidified 5% CO2 incubator. Subculturing was done using 1∶3 ratio twice a week. […]
The high-throughput in vitro assay for measuring toxicity and antiproliferative effects of small molecules was implemented as described earlier. Cell lines were grown in culture flasks to 90% confluences, then harvested in counted cell density and seeded into 384-well microtiter plates. […] For the transformation of the assay into a high-throughput format, a Beckman Biomek liquid handling system and a Wallac Victor plate reader were used. […] From the dose-response curves, IC50 values were determined and analyzed. To test the reproducibility and robustness of the assay for high-throughput screening, Z′ factors (∼0.72) and S/B ratios (∼10) were determined and the respective plate-to-plate and day-to-day coefficients of variation found to be 5.0%, 2.7%, 1.7% and 5.6%. […]

With `O=C(CCCCCCC(=O)Nc1ccccc1)NO` [SAHA, suberoylanilide hydroxamic acid] the IC50 (Homo sapiens, HCT-116, 48 h incubation, dose-response, six concentrations in duplicate) was 640 nM and the “fold selectivity relative to the antiproliferative effect on MRC-5 cells” value (IC50(MRC-5)/IC50(HCT116)) was 781 fold.
